Results reported in the supplement of paper PMC6411743.
± gives the standard deviation of the averaged measurements. The list shows a part of the results, in another mix than the full data. Small differences around the control level are noise.

Chains of the proteins cited; added tags and fusions are not shown. Lines headed by an entry give the natural chain unless they say otherwise; changes in a name come on top.
UniProt Q9H267: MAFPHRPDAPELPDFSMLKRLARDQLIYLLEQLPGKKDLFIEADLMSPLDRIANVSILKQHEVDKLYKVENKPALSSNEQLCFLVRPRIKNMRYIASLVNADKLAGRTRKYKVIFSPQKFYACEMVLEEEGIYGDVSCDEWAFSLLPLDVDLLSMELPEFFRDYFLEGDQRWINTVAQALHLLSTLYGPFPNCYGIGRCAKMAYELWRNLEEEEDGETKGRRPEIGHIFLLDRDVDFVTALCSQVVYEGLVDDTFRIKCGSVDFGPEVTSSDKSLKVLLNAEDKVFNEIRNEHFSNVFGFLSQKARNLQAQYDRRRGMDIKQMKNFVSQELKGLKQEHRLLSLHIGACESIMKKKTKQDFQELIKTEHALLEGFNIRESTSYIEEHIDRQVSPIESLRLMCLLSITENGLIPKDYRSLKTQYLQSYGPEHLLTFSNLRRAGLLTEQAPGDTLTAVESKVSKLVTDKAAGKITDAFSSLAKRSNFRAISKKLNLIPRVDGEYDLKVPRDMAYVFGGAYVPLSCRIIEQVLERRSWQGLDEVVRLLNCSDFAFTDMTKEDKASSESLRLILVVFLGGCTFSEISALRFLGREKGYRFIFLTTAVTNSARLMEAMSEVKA
UniProt Q9H9E1: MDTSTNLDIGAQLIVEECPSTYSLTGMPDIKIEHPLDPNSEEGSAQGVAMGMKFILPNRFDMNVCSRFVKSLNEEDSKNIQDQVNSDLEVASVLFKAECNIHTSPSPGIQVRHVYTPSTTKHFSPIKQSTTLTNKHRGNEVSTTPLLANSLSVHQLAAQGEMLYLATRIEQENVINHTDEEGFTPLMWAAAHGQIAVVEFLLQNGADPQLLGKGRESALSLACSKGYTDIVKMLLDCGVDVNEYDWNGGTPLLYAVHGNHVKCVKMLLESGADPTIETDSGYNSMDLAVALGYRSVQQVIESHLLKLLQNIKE
UniProt Q9GZT8: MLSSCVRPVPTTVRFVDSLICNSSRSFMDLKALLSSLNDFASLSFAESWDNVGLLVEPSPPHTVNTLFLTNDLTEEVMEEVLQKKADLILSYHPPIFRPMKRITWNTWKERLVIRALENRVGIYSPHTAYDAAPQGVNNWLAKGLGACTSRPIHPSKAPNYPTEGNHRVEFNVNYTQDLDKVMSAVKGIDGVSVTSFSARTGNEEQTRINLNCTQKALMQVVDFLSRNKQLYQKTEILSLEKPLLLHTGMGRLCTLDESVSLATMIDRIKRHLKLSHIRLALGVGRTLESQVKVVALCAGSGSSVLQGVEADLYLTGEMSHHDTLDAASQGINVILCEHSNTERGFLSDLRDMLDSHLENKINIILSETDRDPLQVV
UniProt Q9NP66: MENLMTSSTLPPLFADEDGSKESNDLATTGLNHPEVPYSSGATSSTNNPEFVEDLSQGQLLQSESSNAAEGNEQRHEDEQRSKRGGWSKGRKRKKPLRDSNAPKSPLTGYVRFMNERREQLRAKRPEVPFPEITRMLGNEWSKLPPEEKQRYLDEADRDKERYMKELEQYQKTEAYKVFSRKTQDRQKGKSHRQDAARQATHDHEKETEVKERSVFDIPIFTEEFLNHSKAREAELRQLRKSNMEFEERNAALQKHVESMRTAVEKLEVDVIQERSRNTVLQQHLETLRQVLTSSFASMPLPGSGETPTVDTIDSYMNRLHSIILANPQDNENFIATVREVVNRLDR
UniProt Q9H446: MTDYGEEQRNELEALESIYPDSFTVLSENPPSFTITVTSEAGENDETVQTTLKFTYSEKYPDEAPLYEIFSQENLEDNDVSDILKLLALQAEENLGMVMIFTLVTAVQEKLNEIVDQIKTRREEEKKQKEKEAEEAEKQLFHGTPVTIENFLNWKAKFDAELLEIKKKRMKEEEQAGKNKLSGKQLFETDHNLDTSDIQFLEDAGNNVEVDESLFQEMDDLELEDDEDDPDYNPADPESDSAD
UniProt Q9H2J4: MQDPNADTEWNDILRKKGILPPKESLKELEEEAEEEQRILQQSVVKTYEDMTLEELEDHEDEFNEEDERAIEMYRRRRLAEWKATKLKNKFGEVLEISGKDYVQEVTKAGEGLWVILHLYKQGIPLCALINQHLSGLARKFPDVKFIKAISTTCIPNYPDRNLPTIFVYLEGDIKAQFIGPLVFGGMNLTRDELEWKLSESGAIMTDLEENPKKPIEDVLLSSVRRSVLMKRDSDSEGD
UniProt Q9H8M7: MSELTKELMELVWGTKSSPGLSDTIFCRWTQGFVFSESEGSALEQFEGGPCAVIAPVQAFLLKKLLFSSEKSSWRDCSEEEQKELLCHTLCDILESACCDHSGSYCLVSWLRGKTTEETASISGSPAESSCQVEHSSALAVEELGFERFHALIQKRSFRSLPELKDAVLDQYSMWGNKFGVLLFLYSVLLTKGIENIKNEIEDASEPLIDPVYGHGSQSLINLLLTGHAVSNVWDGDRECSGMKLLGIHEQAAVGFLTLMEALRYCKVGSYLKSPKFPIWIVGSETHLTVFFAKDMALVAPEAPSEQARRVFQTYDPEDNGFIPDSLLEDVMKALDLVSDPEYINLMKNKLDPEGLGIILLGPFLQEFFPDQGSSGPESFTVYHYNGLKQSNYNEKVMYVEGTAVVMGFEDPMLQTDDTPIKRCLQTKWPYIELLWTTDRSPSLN
UniProt Q9H2P0: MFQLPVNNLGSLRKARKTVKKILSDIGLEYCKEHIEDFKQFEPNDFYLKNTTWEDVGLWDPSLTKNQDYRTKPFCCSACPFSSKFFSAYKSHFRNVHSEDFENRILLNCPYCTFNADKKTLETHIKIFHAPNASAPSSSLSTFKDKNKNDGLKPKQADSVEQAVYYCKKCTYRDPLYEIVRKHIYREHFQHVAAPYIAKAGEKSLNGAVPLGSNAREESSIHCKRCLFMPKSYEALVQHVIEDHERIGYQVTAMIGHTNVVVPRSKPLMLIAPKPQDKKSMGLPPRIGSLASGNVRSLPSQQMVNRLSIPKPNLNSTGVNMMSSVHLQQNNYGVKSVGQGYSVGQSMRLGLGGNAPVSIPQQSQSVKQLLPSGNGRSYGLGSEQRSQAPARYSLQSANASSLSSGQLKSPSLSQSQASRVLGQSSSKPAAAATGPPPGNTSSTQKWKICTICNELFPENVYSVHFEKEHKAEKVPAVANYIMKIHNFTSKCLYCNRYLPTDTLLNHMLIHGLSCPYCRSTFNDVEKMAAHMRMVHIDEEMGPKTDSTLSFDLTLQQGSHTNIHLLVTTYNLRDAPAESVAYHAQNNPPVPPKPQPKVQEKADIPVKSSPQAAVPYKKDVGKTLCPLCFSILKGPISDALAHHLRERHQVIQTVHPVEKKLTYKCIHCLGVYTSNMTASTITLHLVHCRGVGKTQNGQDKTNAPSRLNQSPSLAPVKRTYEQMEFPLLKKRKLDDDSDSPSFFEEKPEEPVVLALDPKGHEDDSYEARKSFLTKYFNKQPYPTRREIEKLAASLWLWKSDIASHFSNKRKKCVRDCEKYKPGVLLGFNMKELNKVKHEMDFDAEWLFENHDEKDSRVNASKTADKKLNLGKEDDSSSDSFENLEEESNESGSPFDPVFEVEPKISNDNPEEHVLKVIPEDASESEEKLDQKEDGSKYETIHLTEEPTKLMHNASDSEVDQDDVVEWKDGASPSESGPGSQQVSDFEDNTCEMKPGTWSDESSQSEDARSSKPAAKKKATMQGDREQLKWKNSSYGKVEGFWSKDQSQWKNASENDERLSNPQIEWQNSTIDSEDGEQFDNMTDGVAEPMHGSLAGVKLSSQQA
UniProt Q9H845: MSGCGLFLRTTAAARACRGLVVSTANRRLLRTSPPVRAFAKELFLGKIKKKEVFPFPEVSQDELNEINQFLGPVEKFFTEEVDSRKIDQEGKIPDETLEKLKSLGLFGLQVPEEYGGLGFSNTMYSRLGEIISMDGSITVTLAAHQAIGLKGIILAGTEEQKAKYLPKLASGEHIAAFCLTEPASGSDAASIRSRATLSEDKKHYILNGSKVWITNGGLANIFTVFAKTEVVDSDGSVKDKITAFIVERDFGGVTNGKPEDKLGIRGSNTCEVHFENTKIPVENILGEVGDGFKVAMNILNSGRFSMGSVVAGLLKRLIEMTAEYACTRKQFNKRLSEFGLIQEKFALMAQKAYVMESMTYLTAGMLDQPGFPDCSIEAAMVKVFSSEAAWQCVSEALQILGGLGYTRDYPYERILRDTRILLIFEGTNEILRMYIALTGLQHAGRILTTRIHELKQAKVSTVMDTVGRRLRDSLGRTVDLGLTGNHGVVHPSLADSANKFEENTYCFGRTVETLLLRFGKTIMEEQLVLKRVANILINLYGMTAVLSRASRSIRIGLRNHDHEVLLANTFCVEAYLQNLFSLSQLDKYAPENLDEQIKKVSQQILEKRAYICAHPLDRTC
UniProt Q9H4A6: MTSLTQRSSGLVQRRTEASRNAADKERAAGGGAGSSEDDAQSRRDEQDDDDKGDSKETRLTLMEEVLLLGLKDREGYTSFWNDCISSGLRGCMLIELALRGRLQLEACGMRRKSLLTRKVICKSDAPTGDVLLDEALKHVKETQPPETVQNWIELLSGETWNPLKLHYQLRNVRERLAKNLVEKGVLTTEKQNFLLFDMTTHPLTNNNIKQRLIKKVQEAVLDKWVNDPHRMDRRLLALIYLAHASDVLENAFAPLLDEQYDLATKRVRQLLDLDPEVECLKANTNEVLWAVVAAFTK
UniProt Q9H0R4: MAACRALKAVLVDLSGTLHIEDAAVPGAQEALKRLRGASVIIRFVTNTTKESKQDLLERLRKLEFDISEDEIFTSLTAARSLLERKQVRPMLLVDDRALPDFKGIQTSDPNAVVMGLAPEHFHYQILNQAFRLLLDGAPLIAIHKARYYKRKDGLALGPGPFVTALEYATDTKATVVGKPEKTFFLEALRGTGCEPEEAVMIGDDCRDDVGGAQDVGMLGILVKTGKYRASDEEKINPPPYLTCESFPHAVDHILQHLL
UniProt Q9H8H0: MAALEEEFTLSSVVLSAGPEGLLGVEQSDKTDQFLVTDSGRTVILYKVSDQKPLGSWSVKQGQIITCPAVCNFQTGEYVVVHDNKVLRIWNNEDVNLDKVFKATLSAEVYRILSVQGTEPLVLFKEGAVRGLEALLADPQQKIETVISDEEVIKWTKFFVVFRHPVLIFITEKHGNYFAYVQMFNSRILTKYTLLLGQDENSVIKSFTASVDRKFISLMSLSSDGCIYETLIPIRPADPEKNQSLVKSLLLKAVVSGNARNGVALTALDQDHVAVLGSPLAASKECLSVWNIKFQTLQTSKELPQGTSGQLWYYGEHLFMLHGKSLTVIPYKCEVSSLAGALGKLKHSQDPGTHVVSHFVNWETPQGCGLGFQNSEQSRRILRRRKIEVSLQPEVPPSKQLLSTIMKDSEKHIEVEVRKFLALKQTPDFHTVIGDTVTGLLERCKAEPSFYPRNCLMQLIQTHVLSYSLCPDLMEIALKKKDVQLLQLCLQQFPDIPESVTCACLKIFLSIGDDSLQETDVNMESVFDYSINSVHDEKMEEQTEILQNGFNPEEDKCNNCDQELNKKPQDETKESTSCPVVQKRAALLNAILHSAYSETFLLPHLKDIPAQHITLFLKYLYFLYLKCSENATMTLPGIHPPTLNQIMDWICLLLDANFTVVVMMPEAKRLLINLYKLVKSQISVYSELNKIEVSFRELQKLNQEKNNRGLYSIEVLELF
UniProt Q9NPI6: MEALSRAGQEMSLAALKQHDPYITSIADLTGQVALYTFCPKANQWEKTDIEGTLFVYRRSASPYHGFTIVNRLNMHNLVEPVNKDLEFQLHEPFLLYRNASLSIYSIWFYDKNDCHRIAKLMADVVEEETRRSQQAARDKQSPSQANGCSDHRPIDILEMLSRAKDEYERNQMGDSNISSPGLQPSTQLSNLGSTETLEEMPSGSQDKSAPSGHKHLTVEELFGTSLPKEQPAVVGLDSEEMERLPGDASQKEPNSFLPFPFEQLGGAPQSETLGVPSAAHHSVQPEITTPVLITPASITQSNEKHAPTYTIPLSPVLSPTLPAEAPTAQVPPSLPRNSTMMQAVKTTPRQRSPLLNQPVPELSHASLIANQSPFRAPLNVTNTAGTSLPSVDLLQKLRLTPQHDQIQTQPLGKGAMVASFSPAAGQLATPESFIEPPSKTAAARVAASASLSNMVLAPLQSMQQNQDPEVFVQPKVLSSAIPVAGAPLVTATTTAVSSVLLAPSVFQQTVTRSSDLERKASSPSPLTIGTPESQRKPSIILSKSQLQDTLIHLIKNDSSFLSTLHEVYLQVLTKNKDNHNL
UniProt Q9H4B0: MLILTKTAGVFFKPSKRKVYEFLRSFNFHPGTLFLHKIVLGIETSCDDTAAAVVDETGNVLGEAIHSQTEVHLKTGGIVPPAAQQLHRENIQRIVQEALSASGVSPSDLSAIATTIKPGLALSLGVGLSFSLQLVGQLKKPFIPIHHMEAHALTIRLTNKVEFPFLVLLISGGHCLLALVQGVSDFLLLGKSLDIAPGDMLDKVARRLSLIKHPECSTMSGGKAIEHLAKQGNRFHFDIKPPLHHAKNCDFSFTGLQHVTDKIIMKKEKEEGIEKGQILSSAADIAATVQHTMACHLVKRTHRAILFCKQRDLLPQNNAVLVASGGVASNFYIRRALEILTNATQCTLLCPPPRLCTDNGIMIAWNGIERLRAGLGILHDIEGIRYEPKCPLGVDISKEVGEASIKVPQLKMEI

Compound: Nc1ncnc2c1ncn2[C@@H]1O[C@H](COP(=O)(O)OP(=O)(O)NP(=O)(O)O)[C@@H](O)[C@H]1O [adenylyl imidodiphosphate]
Assay: NP40-soluble protein abundance relative to vehicle (solubility fold change) (ratio); higher = more soluble protein in presence of AMP-PNP
Procedure, shortened: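 Crude Jurkat lysate, prepared by Dounce homogenisation, was exposed to eight concentrations from 0.1 to 10 mM for 10 min at room temperature and then 3 min at 37 °C. Solubilisation used 0.8% NP40 with benzonase for 60 min at 4 °C, followed by ultracentrifugation and TMT labelling of the supernatant for LC-MS/MS. After vsn normalisation of intensities, each value is the fold change against the detergent-processed vehicle within each replicate, across three independent experiments.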

Target	NP40-soluble protein abundance (concentration: 0.1mM)	NP40-soluble protein abundance (concentration: 0.5mM)
UniProt Q9H3U1 and related entries	0.996 ± 0.015	0.9642 ± 0.0067
GRPEL1 (UniProt Q9HAV7)	0.957 ± 0.066	0.973 ± 0.07
PTGES2 (UniProt Q9H7Z7)	0.994 ± 0.056	0.972 ± 0.056
WDR61 (UniProt Q9GZS3)	0.979 ± 0.012	0.953 ± 0.043
DSN1 (UniProt Q9H410)	0.979 ± 0.024	0.975 ± 0.033
VPS33B (UniProt Q9H267)	0.984 ± 0.016	0.95 ± 0.056
ANAPC1 (UniProt Q9H1A4)	1.01 ± 0.043	0.951 ± 0.1
PLEKHA3 (UniProt Q9HB20)	0.997 ± 0.021	0.993 ± 0.022
UniProt Q9HCE5	0.96 ± 0.035	0.999 ± 0.05
ANKRA2 (UniProt Q9H9E1)	0.987 ± 0.091	0.985 ± 0.035
UniProt Q9HBM0 and related entries	1.02 ± 0.018	0.9943 ± 0.008
UniProt Q9H270 and related entries	1.02 ± 0.037	0.998 ± 0.045
UniProt Q9H0G5	1.036 ± 0.0043	1 ± 0.027
UniProt Q9HA65 and related entries	1.07 ± 0.02	1.08 ± 0.083
RANGRF (UniProt Q9HD47)	1.02 ± 0.062	1.023 ± 0.0076
UniProt Q9H3H3-2|Q9H3H3-3	1.01 ± 0.028	0.967 ± 0.066
UniProt Q9H8P0 and related entries	0.973 ± 0.1	1.02 ± 0.073
UniProt Q9GZR1 and related entries	0.983 ± 0.017	0.993 ± 0.019
L2HGDH (UniProt Q9H9P8)	1.008 ± 0.0082	1.01 ± 0.012
SCAF1 (UniProt Q9H7N4)	0.989 ± 0.042	1.04 ± 0.033
UniProt Q9H6D7	1.01 ± 0.012	1.03 ± 0.011
UniProt Q9GZT8 and related entries	1 ± 0.015	0.981 ± 0.046
HMG20A (UniProt Q9NP66)	1.01 ± 0.022	1.02 ± 0.047
UniProt Q9H446 and related entries	0.957 ± 0.017	1 ± 0.042
PDCL3 (UniProt Q9H2J4)	0.988 ± 0.015	0.976 ± 0.012
UniProt Q9H8M7	0.984 ± 0.031	1.01 ± 0.051

Already shown: an excerpt of the list.
Target	NP40-soluble protein abundance (concentration: 0.1mM)	NP40-soluble protein abundance (concentration: 0.5mM)
ANKRA2 (UniProt Q9H9E1)	0.987 ± 0.091	0.985 ± 0.035
UniProt Q9HBM0 and related entries	1.02 ± 0.018	0.9943 ± 0.008
UniProt Q9H270 and related entries	1.02 ± 0.037	0.998 ± 0.045
UniProt Q9H0G5	1.036 ± 0.0043	1 ± 0.027

(continued)

Target	NP40-soluble protein abundance (concentration: 0.1mM)	NP40-soluble protein abundance (concentration: 0.5mM)
UniProt Q9H1B7	1.02 ± 0.011	1 ± 0.034
UniProt Q9GZT3 and related entries	0.998 ± 0.047	1.03 ± 0.075
UniProt Q9H0S4 and related entries	1.05 ± 0.029	1.05 ± 0.057
UniProt Q9H0X4	0.944 ± 0.022	0.9583 ± 0.0033
ADNP (UniProt Q9H2P0)	1 ± 0.035	1.01 ± 0.021
RACGAP1 (UniProt Q9H0H5)	0.987 ± 0.011	1.02 ± 0.025
WDR12 (UniProt Q9GZL7)	1 ± 0.021	1.01 ± 0.047
UniProt Q9NPA8 and related entries	1.03 ± 0.087	1.1 ± 0.16
ACAD9 (UniProt Q9H845)	0.9816 ± 0.0037	0.9943 ± 0.0032
UniProt Q9H3Z4 and related entries	1.01 ± 0.045	1.04 ± 0.048
UniProt Q9H5V9 and related entries	0.98 ± 0.013	1 ± 0.022
UniProt Q9H7E9 and related entries	1.04 ± 0.078	1.09 ± 0.12
GOLPH3 (UniProt Q9H4A6)	1.03 ± 0.038	1.03 ± 0.042
UniProt Q9H8M2 and related entries	0.99 ± 0.03	0.992 ± 0.047
UniProt Q9BZV1 and related entries	1.01 ± 0.02	0.977 ± 0.02
UniProt Q9H0R4 and related entries	0.9878 ± 0.0088	1.03 ± 0.046
EGLN1 (UniProt Q9GZT9)	0.987 ± 0.019	0.989 ± 0.02
UniProt Q9NPJ3	0.98 ± 0.03	0.978 ± 0.021
UniProt Q9H2D6-5|Q9H2D6 and related entries	0.973 ± 0.022	0.967 ± 0.026
NOL11 (UniProt Q9H8H0)	1 ± 0.035	0.9851 ± 0.0043
UniProt Q9H330-2	0.976 ± 0.025	0.988 ± 0.051
UniProt Q9H4X1 and related entries	1 ± 0.02	1.01 ± 0.051
ACBD3 (UniProt Q9H3P7)	1 ± 0.032	0.989 ± 0.024
UniProt Q9H477 and related entries	0.991 ± 0.017	0.99 ± 0.039
SCPEP1 (UniProt Q9HB40)	0.987 ± 0.045	0.95 ± 0.059
SENP3 (UniProt Q9H4L4)	1.01 ± 0.028	0.991 ± 0.052

Target	NP40-soluble protein abundance (concentration: 0.1mM)	NP40-soluble protein abundance (concentration: 0.5mM)
UniProt Q9HCN4 and related entries	0.98 ± 0.031	0.9965 ± 0.0097
UniProt Q9C035 and related entries	0.99 ± 0.041	0.983 ± 0.01
UniProt Q9H300 and related entries	1.01 ± 0.055	1.07 ± 0.065
UCK2 (UniProt Q9BZX2)	1.06 ± 0.056	1.02 ± 0.026
UniProt Q9NNW7 and related entries	1.01 ± 0.021	0.996 ± 0.013
UniProt Q9GZN8 and related entries	1 ± 0.038	0.99 ± 0.043
UniProt Q9H9T3-2	1.04 ± 0.024	1.01 ± 0.051
DCP1A (UniProt Q9NPI6)	0.997 ± 0.044	0.993 ± 0.034
ULBP2 (UniProt Q9BZM5)	1.03 ± 0.063	0.9974 ± 0.0075
CBX8 (UniProt Q9HC52)	1.02 ± 0.024	1.011 ± 0.0052
OSGEPL1 (UniProt Q9H4B0)	1.06 ± 0.048	1.03 ± 0.025
UniProt Q9BZI7 and related entries	1.02 ± 0.034	1.01 ± 0.026
UniProt Q9H0F6 and related entries	1.04 ± 0.058	1.03 ± 0.015
PCIF1 (UniProt Q9H4Z3)	0.956 ± 0.075	1.02 ± 0.12
UniProt Q9H0W9 and related entries	0.977 ± 0.022	0.988 ± 0.02
SLC38A10 (UniProt Q9HBR0)	0.987 ± 0.021	1 ± 0.011
UniProt Q9H0X9 and related entries	0.983 ± 0.015	0.945 ± 0.037
Q9NPA5 and related entries (UniProt Q9NTW7)	0.98 ± 0.014	0.996 ± 0.02
PHAX (UniProt Q9H814)	0.994 ± 0.034	1.02 ± 0.053
TMEM165 (UniProt Q9HC07)	1.04 ± 0.03	1.06 ± 0.063
ZHX3 (UniProt Q9H4I2)	1.01 ± 0.041	1.02 ± 0.061
UniProt Q9H8V3 and related entries	0.985 ± 0.023	0.999 ± 0.024
ACTR8 (UniProt Q9H981)	0.986 ± 0.013	1.01 ± 0.045
UniProt Q9H4L5 and related entries	0.984 ± 0.029	0.996 ± 0.033
